From patent US20240277845A1
No constants are given. Whether binding was seen depends on the method and setting. Some entries that bind do so weakly or less than the wild type. For some of these results: Sequences can lack the tags named with a protein.

Protein sequences, listed by entry. Tags and fused reporters are not part of them. Lines headed by an entry give the natural chain unless they say otherwise; changes in a name come on top. Chains listed by the source or under a name are the forms on record and can include a tag or linker. Residues count along the entry.
UniProt Q29983, residues 24-308: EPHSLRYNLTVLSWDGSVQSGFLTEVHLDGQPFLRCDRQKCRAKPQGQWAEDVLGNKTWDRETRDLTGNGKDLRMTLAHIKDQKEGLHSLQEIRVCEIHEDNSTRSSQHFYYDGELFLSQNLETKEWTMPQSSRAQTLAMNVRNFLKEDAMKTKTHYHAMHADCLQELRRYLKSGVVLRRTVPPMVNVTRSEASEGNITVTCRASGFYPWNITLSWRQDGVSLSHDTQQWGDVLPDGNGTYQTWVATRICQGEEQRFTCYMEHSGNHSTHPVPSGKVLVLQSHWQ
Fc-wtNKG2D (P26718, form named): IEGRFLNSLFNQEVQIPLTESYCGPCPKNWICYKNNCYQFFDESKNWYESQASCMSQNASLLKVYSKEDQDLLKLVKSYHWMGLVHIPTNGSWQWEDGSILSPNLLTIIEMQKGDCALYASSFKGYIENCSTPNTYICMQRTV

How the values were obtained:
Assay in all cases: ELISA; ligand-Fc coated, biotinylated Fc-NKG2D titrated, streptavidin-HRP; x axis printed as 'nM ligand-Fc'
[1] = target: MICA-Fc (UniProt Q29983)
[2] = target: T1, MICB-Fc (UniProt Q29980)
T1 sequence (looked up): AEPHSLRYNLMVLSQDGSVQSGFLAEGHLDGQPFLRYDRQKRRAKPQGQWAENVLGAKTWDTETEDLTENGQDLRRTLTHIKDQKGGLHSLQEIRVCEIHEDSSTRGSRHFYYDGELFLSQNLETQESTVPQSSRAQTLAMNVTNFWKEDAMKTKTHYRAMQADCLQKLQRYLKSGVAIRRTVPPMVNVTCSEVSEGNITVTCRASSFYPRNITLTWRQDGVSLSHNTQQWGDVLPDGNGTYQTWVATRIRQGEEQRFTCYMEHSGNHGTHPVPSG

[3] = target: T2, ULBP1-Fc (UniProt Q9BZM6)
T2 sequence (looked up): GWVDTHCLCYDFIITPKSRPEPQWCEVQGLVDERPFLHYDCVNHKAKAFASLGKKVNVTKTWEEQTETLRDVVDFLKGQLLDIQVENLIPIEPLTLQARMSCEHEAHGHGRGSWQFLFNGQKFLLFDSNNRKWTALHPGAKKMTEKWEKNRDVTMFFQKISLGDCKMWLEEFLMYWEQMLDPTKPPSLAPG

[4] = target: T3, ULBP3-Fc (UniProt Q9BZM4)
T3 sequence (looked up): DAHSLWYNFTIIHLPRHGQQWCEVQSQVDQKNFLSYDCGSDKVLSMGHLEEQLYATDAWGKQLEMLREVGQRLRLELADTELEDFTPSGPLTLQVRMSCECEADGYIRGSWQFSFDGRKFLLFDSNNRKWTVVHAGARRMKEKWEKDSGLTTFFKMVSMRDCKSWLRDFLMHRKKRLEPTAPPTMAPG

Measured: binding

Fc-wtNKG2D (from UniProt P26718 78-216) (Fc fusion)
binds: all assays above
